Experimental data: paper doi:10.1101/2025.07.08.663682
Read-outs that look alike come from different tables or passages of the source. No constants are given. Whether binding was seen depends on the method and setting. Binding seen in cells or lysates may run through a third protein. Some binding calls cover weakened binding; strength is not graded here.

The chains behind the UniProt entries cited, without tags or fusion partners.
UniProt Q9H6L5: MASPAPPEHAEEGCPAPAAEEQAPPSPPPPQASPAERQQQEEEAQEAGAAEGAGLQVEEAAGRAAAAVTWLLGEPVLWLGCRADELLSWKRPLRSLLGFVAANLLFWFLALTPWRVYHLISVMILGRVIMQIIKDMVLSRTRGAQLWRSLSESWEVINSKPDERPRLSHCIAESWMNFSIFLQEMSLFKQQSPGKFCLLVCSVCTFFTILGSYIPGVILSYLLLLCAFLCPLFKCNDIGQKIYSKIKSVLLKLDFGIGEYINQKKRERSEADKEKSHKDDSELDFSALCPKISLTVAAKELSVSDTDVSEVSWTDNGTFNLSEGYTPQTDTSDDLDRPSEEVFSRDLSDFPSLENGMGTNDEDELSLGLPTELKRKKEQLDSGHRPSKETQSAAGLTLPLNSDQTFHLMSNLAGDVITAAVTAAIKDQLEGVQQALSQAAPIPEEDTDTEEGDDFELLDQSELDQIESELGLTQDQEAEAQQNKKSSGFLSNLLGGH

Experiments:
FAM134B-V5 [1] = target: FAM134B-V5 (UniProt Q9H6L5); experiment: co-IP
FAM134B-V5 [2] = target: FAM134B-V5 (UniProt Q9H6L5); experiment: co-IP; remark: listed apart in the source

binding (FAM134B-V5 [1]): binds | binding (FAM134B-V5 [2]): binds
B1: Calnexin (CNX) (protein, UniProt P27824 21-592)
chain: HDGHDDDVIDIEDDLDDVIEEVEDSKPDTTAPPSSPKVTYKAPVPTGEVYFADSFDRGTLSGWILSKAKKDDTDDEIAKYDGKWEVEEMKESKLPGDKGLVLMSRAKHHAISAKLNKPFLFDTKPLIVQYEVNFQNGIECGGAYVKLLSKTPELNLDQFHDKTPYTIMFGPDKCGEDYKLHFIFRHKNPKTGIYEEKHAKRPDADLKTYFTDKKTHLYTLILNPDNSFEILVDQSVVNSGNLLNDMTPPVNPSREIEDPEDRKPEDWDERPKIPDPEAVKPDDWDEDAPAKIPDEEATKPEGWLDDEPEYVPDPDAEKPEDWDEDMDGEWEAPQIANPRCESAPGCGVWQRPVIDNPNYKGKWKPPMIDNPSYQGIWKPRKIPNPDFFEDLEPFRMTPFSAIGLELWSMTSDIFFDNFIICADRRIVDDWANDGWGLKKAADGAAEPGVVGQMIEAAEERPWLWVVYILTVALPVFLVILFCCSGKKQTSGMEYKKTDAPQPDVKEEEEEKEEEKDKGDEEEEGEEKLEEKQKSDAEEDGGTVSQEEEDRKPKAEEDEILNRSPRNRKPRRE
